The source of these data is US20120208861A1.

By UniProt entry, the sequences of proteins in these tests, tags left out. Where a name states a change or a piece, a line headed by the entry shows the natural chain unless it says otherwise.
UniProt O35906: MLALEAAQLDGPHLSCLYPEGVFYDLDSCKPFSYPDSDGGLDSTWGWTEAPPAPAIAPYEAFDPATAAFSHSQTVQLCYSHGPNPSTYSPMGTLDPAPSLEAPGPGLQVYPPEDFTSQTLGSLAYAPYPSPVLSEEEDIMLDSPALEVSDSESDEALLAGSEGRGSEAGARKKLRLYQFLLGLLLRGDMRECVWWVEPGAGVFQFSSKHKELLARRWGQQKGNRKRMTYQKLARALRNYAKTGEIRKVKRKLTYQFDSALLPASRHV

The target in test [1] is T1, FLAG-tagged mouse IRF-7 (mouse) (UniProt P70434).
T1 sequence: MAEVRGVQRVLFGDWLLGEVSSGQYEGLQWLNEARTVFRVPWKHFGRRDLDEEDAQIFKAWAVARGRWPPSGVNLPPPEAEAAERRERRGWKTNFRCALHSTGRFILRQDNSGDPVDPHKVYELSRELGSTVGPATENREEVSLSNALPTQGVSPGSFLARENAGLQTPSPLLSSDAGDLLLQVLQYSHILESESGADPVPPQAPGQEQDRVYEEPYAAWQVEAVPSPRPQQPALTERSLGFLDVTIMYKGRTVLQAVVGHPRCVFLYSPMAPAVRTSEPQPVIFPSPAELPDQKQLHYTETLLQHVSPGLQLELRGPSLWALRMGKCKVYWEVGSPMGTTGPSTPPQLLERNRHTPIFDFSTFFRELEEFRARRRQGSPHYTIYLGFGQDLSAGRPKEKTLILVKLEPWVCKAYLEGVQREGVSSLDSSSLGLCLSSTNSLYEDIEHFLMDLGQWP
The test is described as follows: co-immunoprecipitation in both directions (anti-HA and anti-FLAG) from 293T cell extract, immunoblot. On the technique in general: In western blotting, separated proteins are transferred to a membrane and probed.

In test [2] the target is T1, FLAG-tagged mouse IRF-7 (mouse). Put plainly: co-immunoprecipitation from 293 cell extract, SDS-PAGE and immunoblotting.

Results are given in words; binding and its absence hold for the method and conditions named. In cells and extracts the contact can be indirect. Some binding calls cover weakened binding; strength is not graded here. Sequences can lack the tags named with a protein.

As for “HA-tagged mouse Spi-B (from UniProt O35906 1-267)”, the binding entry in test [1] and in test [2] was “binds” in each case.
